This passage reports T/C and survivor count results from PubChem BioAssay AID330 (DTP/NCI, 2004).

The list is a part of this screen's results and no random one: it gathers tests that were run many times, whatever their T/C, doses with no T/C, and many T/C values between a quarter and a half above the control. Further doses and runs are listed elsewhere. T/C is the treated group as % of the vehicle group. Some doses have a count of surviving animals in place of a T/C: the source files T/C as zero there, which appears to mark a toxic dose or a test without result, not a measured value. Some survivor counts are full or nearly so, which does not show that the dose was tolerated: survival well below the control is almost never listed, so the zero probably covers shortened survival too. Survivors were counted at the toxicity check, usually on the fifth day, unless a day is given; later deaths do not show. Schedules are NCI's codes, read here as Q, the interval in days (D) or hours (H), X, the number of doses. Signs of the kind (2×) give the number of equal values in this list. Some entries hold several experiments; their values stand side by side, smallest first. For survival time, the PubChem record calls one and a half times the control and up active, and a quarter to a half above the control has no call in these data; cut-offs in other NCI protocols can differ. Some T/C values are followed by the survivors on the day toxicity was checked, most often the fifth; without a count, all were alive then.

For this assay, the system named is P388 leukemia ip, CD2F1 mice, survival T/C. In words: NCI In Vivo Anticancer Drug Screen. Data for tumor model P388 Leukemia (intraperitoneal) in CD2F1 (CDF1) mice. The conditions noted are these: T/C endpoint: median survival time, higher T/C = longer survival.
The mark [1] stands for this setting: dose: 25.0 mg/kg/injection, schedule: Q01DX009 (ip), vehicle: saline with Tween-80.
The mark [2] stands for this setting: dose: 50.0 mg/kg/injection, schedule: Q01DX005 (ip), vehicle: Klucel (hydroxypropylcellulose) (HPC).
The mark [3] stands for this setting: dose: 100.0 mg/kg/injection, schedule: Q01DX005 (ip), vehicle: Klucel (hydroxypropylcellulose) (HPC).
The mark [4] stands for this setting: dose: 200.0 mg/kg/injection, schedule: Q01DX005 (ip), vehicle: Klucel (hydroxypropylcellulose) (HPC).
Where [5] appears, read: dose: 100.0 mg/kg/injection, schedule: Q01DX005 (ip), vehicle: saline with Tween-80.
Setting [6] is: dose: 200.0 mg/kg/injection, schedule: Q01DX005 (ip), vehicle: saline with Tween-80.
The mark [7] stands for this setting: dose: 200.0 mg/kg/injection, schedule: Q01DX009 (ip), vehicle: Klucel (hydroxypropylcellulose) (HPC).
Where [8] appears, read: dose: 240.0 mg/kg/injection, schedule: Q01DX005 (ip), vehicle: saline with Tween-80.
[9] abbreviates: dose: 400.0 mg/kg/injection, schedule: Q04DX003 (ip), vehicle: saline with Tween-80.
[10] abbreviates: dose: 50.0 mg/kg/injection, schedule: Q01DX005 (ip), vehicle: saline.
Setting [11] is: dose: 100.0 mg/kg/injection, schedule: Q01DX005 (ip), vehicle: saline.
The mark [12] stands for this setting: dose: 200.0 mg/kg/injection, schedule: Q01DX005 (ip), vehicle: saline.
Where [13] appears, read: dose: 60.0 mg/kg/injection, schedule: Q01DX005 (ip), vehicle: saline with Tween-80.
Where [14] appears, read: dose: 120.0 mg/kg/injection, schedule: Q01DX005 (ip), vehicle: saline with Tween-80.

With `CCCC[S][Sn]([CH2]CCC)([CH2]CCC)[S]CCCC`, the T/C is, setting by setting: (dose: 0.75 mg/kg/injection, schedule: Q01DX009 (ip), vehicle: saline with Tween-80) 134 % of control; (dose: 1.5 mg/kg/injection, schedule: Q01DX009 (ip), vehicle: saline with Tween-80) 142 and 144 % of control. For the same compound, the survivor count is 5 of 6 (dose: 3.0 mg/kg/injection, schedule: Q01DX009 (ip), vehicle: saline with Tween-80); 3 of 6 (dose: 6.0 mg/kg/injection, schedule: Q01DX009 (ip), vehicle: saline with Tween-80); 1 of 6 (dose: 12.0 mg/kg/injection, schedule: Q01DX009 (ip), vehicle: saline with Tween-80).
For `CC1(C)C(=O)N(Cl)C(=O)N1Cl`, the survivor count (dose: 25.0 mg/kg/injection, schedule: Q01DX005 (ip), vehicle: Klucel (hydroxypropylcellulose) (HPC)) is 4 of 5; the survivor count under setting [1] is on record as 2 of 6; the survivor count (dose: 37.5 mg/kg/injection, schedule: Q01DX009 (ip), vehicle: saline with Tween-80) is 3 of 6; the survivor count under setting [2] is 0 of 5 and 1 of 5; the survivor count (dose: 50.0 mg/kg/injection, schedule: Q01DX005 (ip), vehicle: saline with Tween-80) was 0 of 6; the survivor count under setting [3] was 0 of 5 and 1 of 5. In addition, the survivor count under setting [4] was 0 of 5 (2×).
Regarding `Cc1ccc(S(=O)(=O)N/N=C(\Cc2ccccc2)c2ccc(Br)cc2)cc1`, the survivor count (dose: 50.0 mg/kg/injection, schedule: Q01DX009 (ip), vehicle: saline) was 6 of 6.
On to `CCCCCCCN(CCCCCCC)C(=N)c1ccc(OC)c2ccccc12`, for which the survivor count is 1 of 5 under setting [2], 0 of 5 under setting [3] and 0 of 5 under setting [4].
Turning to `CCCCN1C=C(C)N(CCCC)CC1`, the survivor count reads like this: under setting [5], 5 of 5; under setting [6], 0 of 5.
As for `CCOC(=O)CN(C)C(c1ccccc1)c1cccs1` (stereo not given), the survivor count (dose: 400.0 mg/kg/injection, schedule: Q04DX002 (ip), vehicle: Klucel (hydroxypropylcellulose) (HPC)) was 1 of 5.
Take `CCCCSc1nc2ccc(N=Cc3ccccc3O)cc2s1`: the survivor count under setting [7] is on record as 5 of 6.
On to `COc1cc(O)c(O)cc1C(C)(C)C`, for which, under “dose: 180.0 mg/kg/injection, schedule: Q01DX005 (ip), vehicle: saline with Tween-80”, the survivor count is on record as 6 of 6.
On to `CCOC(=O)C(=O)Nc1cccc(NC(=O)C(=O)OCC)n1`, for which the survivor count under setting [8] was 4 of 6.
`CC1(C)C2CC=C(C[P+](c3ccccc3)(c3ccccc3)c3ccccc3)C1C2` (stereo not given): the T/C (dose: 5.0 mg/kg/injection, schedule: Q01DX009 (ip), vehicle: saline with Tween-80) was 133 % of control.
For the compound `Cc1cc(N(CC(C)Br)CC(C)Br)ccc1N=Nc1ccccc1C(=O)O` (stereo not given), the survivor count under setting [1] is given as 4 of 6. Further, under “dose: 25.0 mg/kg/injection, schedule: Q01DX009 (oral), vehicle: saline with Tween-80”, the T/C is 130 % of control.
For the compound `NS(=O)(=O)c1cc(Cl)cc(Cl)c1O`, for the setting “dose: 200.0 mg/kg/injection, schedule: Q01DX009 (ip), vehicle: saline with Tween-80”, the survivor count is reported as 0 of 6.
Regarding `O=C(O)CC(=O)O.[Cu+2].[NH-]C1CCCC2CCC[N-]C12` (stereo not given), for the setting “dose: 20.0 mg/kg/injection, schedule: Q04DX002 (ip), vehicle: saline”, the survivor count is reported as 1 of 6.
Regarding `COC(=O)C(F)C(N)C(=O)O` (stereo not given), the survivor count (dose: 100.0 mg/kg/injection, schedule: Q04DX003 (ip), vehicle: saline) is on record as 6 of 6.
Take `COc1ccc(/C=N\NC(=O)C(=O)N/N=C\c2ccc(OC)c(OC)c2)cc1OC`: the survivor count by setting is: (dose: 100.0 mg/kg/injection, schedule: Q01DX009 (ip), vehicle: Klucel (hydroxypropylcellulose) (HPC)) 6 of 6; under setting [7], 6 of 6.
Regarding `[B-][N+](C)(C)C`, the survivor count under setting [6] is 0 of 5.
For `CC1(C)N=C(N)N=C(N)N1c1cccc(CC(=O)Nc2ccc(S(=O)(=O)F)cc2)c1`, the T/C (dose: 12.5 mg/kg/injection, schedule: Q01DX009 (ip), vehicle: saline with Tween-80) is 130 % of control; the T/C under setting [1] is 145 % of control; the T/C (dose: 50.0 mg/kg/injection, schedule: Q01DX009 (ip), vehicle: saline with Tween-80) was 140 % of control [5 of 6 alive]; the T/C (dose: 66.0 mg/kg/injection, schedule: Q01DX009 (ip), vehicle: saline with Tween-80) is 136 % of control; the T/C (dose: 100.0 mg/kg/injection, schedule: Q01DX009 (ip), vehicle: saline with Tween-80) is 145 % of control; the T/C (dose: 100.0 mg/kg/injection, schedule: Q04DX003 (ip), vehicle: saline with Tween-80) is 127 % of control. For the same compound, the T/C (dose: 150.0 mg/kg/injection, schedule: Q01DX009 (ip), vehicle: saline with Tween-80) is 145 % of control and the T/C under setting [9] was 131 % of control. The survivor count was 1 of 6 (dose: 264.0 mg/kg/injection, schedule: Q04DX003 (ip), vehicle: saline with Tween-80); 1 of 6 under setting [9]; 0 of 6 (dose: 600.0 mg/kg/injection, schedule: Q04DX003 (ip), vehicle: saline with Tween-80).
`CC[N+](CC)=c1cc2oc3cc(N(C)C)ccc3nc-2cc1C`: the survivor count by setting is: under setting [5], 0 of 5; under setting [6], 0 of 5.
For `C/C=N/NCCC#N`, the survivor count under setting [10] is reported as 0 of 6, the survivor count under setting [11] is listed as 0 of 6 and the survivor count under setting [12] was 0 of 6.
Take `CCCCN(CCCC)C(=N)c1c(OC)cccc1OC`: the survivor count reads like this: (dose: 6.25 mg/kg/injection, schedule: Q01DX005 (ip), vehicle: saline) 2 of 5; (dose: 12.5 mg/kg/injection, schedule: Q01DX005 (ip), vehicle: saline) 0 of 5; (dose: 25.0 mg/kg/injection, schedule: Q01DX005 (ip), vehicle: saline) 0 of 5; under setting [10], 0 of 5; under setting [11], 0 of 5; under setting [12], 0 of 5.
As for `CCOC(=O)c1ccc2c(c1)CCC2`, the survivor count (dose: 200.0 mg/kg/injection, schedule: Q01DX009 (ip), vehicle: acetone) was 4 of 6.
With `Clc1cccc(NCNC2Nc3ccccc3N2)c1`, the survivor count reads like this: under setting [13], 6 of 6; under setting [14], 1 of 6; under setting [8], 0 of 6.
Turning to `CC1(C)N=C(N)N=C(N)N1c1ccc(OCC(=O)N2CCOCC2)cc1`, the survivor count reads like this: (dose: 150.0 mg/kg/injection, schedule: Q01DX009 (ip), vehicle: saline sonified) 1 of 6; (dose: 200.0 mg/kg/injection, schedule: Q04DX003 (ip), vehicle: saline) 4 of 6.
Consider `N#Cc1nc(CC(=O)c2ccccn2)c(CC(=O)c2ccccn2)nc1C#N`, for which the survivor count under setting [8] is reported as 0 of 6.
Turning to `N#CC(=O)Nc1ccc(F)cc1`, the survivor count by setting is: (dose: 30.0 mg/kg/injection, schedule: Q01DX005 (ip), vehicle: saline with Tween-80) 1 of 6; under setting [13], 0 of 6; under setting [14], 0 of 6; under setting [8], 0 of 6.
As to `COc1ccc(CCN)c(OC)c1OC`, the survivor count (dose: 200.0 mg/kg/injection, schedule: Q01DX009 (ip), vehicle: saline) is 0 of 6 and 1 of 6.
